Measurements from paper PMC6825215 (Nature Communications, 2019).
For some assays here: Where a sequence shows no end group, the ends are not given.

Experiments:
[1] = peptide made by a vendor (peptide synthesis; rink amide resin); settings: whole synthesis, mass spectrometry
[2] = test system: HCAVSMCs; set-up: method as in 2 sources, ref 22 = [22]; PMID 17379147; doi:10.1016/j.chembiol.2007.02.007; 22. Yuan H Barnes KR Weissleder R Cantley L Josephson L Covalent reactions of wortmannin under physiological conditions Chem. Biol. 2007 14 321 328 10.1016/j.chembiol.2007.02.007 17379147 ||| ref 23 = [23]; PMID 25889964; doi:10.1186/s12964-015-0102-1; 23. Preta G Cronin JG Sheldon IM Dynasore—not just a dynamin inhibitor Cell Commun. Signal 2015 13 24 10.1186/s12964-015-0102-1 25889964 PMC4396812; settings: cited from earlier work

VSGWALFKKIS
final purity (method not given) ([1]; scale 19 mg): >95%

COC[C@H]1OC(=O)c2coc3c2[C@@]1(C)C1=C(C3=O)[C@@H]2CCC(=O)[C@@]2(C)C[C@H]1OC(C)=O [wortmannin, Wortmannin]
duration of bioactivity following removal from the media [2]: 48 h

YARAAARQARA-HiBiT
final purity (method not given) ([1]; scale 20 mg): >95%

Ac-GLWRALWRLLRSLWRLLWRA-cya (N-acetyl, C-terminal cysteamide)
final ms purity ([1]; scale 20 mg): ≥80%

O=C(N/N=C/c1ccc(O)c(O)c1)c1cc2ccccc2cc1O [dynasore, Dynasore]
time to reversal of inhibitory effect following removal from the media [2]: ≤ 20 min
